PubChem BioAssay AID1259254, NCATS, 2017
Aim: 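Genome-wide screen for genes that prevent DNA re-replication in cancer cells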 (primary screen). Cells: human HCT116 colorectal cancer cells. Reagent: single siRNA against human genes. Timing: 3 days. Measured: 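Imaged Hoechst DNA stain sorts each cell into a cycle phase by DNA amount; per plate, G2 fraction set to 0% for non-targeting and 100% for GMNN siRNA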. Scale: G2 robust z-score and G2 cells, % of GMNN control: higher = more G2 cells, more excess DNA replication. Call rule: 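An siRNA counts as active if its G2 robust z-score lies at least 5 MADs above the screen median; here such calls match roughly 38% of GMNN control or more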.
The deposit covers about 59,000 reagents; below is an unselected part. Of all reagents, about 1,550 (2.6%) were called active. 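G2 share is only a proxy for re-replication; each gene was hit by three separate siRNAs, and active genes were retested.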 Reagents against one gene are numbered here. Not all columns of the deposit are shown. Not given: the amount of reagent.

GABRR1 (gamma-aminobutyric acid type A receptor subunit rho1) #1 showed G2 robust z-score -0.968; G2 cells, % of GMNN control -3.84; inactive. Silencing of GABRR1 (gamma-aminobutyric acid type A receptor subunit rho1) #2 resulted in: G2 robust z-score -0.318; G2 cells, % of GMNN control 0.731; inactive. Against GABRR1 (gamma-aminobutyric acid type A receptor subunit rho1) #3, the values are G2 robust z-score 1.62; G2 cells, % of GMNN control 14.4; inactive. Silencing of FAM9C (family with sequence similarity 9 member C) #1 came out at: G2 robust z-score -0.241; G2 cells, % of GMNN control 1.27; inactive. Against FAM9C (family with sequence similarity 9 member C) #2, the values are G2 robust z-score -0.37; G2 cells, % of GMNN control 0.367; inactive. Knock-down of FAM9C (family with sequence similarity 9 member C) #3 came out at: G2 robust z-score -0.212; G2 cells, % of GMNN control 1.48; inactive.

TAOK1 (TAO kinase 1) #1 showed G2 robust z-score -0.844; G2 cells, % of GMNN control -2.97; inactive. Silencing of TAOK1 (TAO kinase 1) #2 resulted in: G2 robust z-score -0.9; G2 cells, % of GMNN control -3.36; inactive. With knock-down of TAOK1 (TAO kinase 1) #3 the results were G2 robust z-score -0.978; G2 cells, % of GMNN control -3.91; inactive. Knock-down of RYR2 (ryanodine receptor 2) #1 resulted in: G2 robust z-score 0.0348; G2 cells, % of GMNN control 3.21; inactive. For RYR2 (ryanodine receptor 2) #2, the entry reads G2 robust z-score -0.464; G2 cells, % of GMNN control -0.296; inactive. Against RYR2 (ryanodine receptor 2) #3 the deposit lists G2 robust z-score -0.688; G2 cells, % of GMNN control -1.87; inactive.

Against ZEB2 (zinc finger E-box binding homeobox 2) #1, the entry reads G2 robust z-score -0.84; G2 cells, % of GMNN control -2.94; inactive. Silencing of ZEB2 (zinc finger E-box binding homeobox 2) #2 gave: G2 robust z-score 1.41; G2 cells, % of GMNN control 12.9; inactive. With knock-down of ZEB2 (zinc finger E-box binding homeobox 2) #3, the record shows G2 robust z-score -0.197; G2 cells, % of GMNN control 1.58; inactive.

2 of these entries, set out differently:
{"gene": "FAM9C (family with sequence similarity 9 member C)", "reagent no.": 1, "G2 robust z-score": -0.241, "G2 cells, % of GMNN control": 1.27, "activity call": "inactive"}
{"gene": "FAM9C (family with sequence similarity 9 member C)", "reagent no.": 2, "G2 robust z-score": -0.37, "G2 cells, % of GMNN control": 0.367, "activity call": "inactive"}

Continued.
For LOC729973 #1 the deposit lists G2 robust z-score -0.351; G2 cells, % of GMNN control 0.499; inactive. For LOC729973 #2 the deposit lists G2 robust z-score 0.862; G2 cells, % of GMNN control 9.03; inactive. After knock-down of LOC729973 #3, the screen gave G2 robust z-score -0.999; G2 cells, % of GMNN control -4.06; inactive. Knock-down of PPARD (peroxisome proliferator activated receptor delta) #1 resulted in: G2 robust z-score 5.96; G2 cells, % of GMNN control 44.9; active. For PPARD (peroxisome proliferator activated receptor delta) #2, the values are G2 robust z-score 0.0374; G2 cells, % of GMNN control 3.23; inactive. PPARD (peroxisome proliferator activated receptor delta) #3 scored G2 robust z-score -0.636; G2 cells, % of GMNN control -1.51; inactive.

FAM90A1 (family with sequence similarity 90 member A1) #1 gave G2 robust z-score -0.0975; G2 cells, % of GMNN control 2.28; inactive. After knock-down of FAM90A1 (family with sequence similarity 90 member A1) #2, the screen gave G2 robust z-score -1.1; G2 cells, % of GMNN control -4.76; inactive. Against FAM90A1 (family with sequence similarity 90 member A1) #3 the deposit lists G2 robust z-score 0.683; G2 cells, % of GMNN control 7.77; inactive.
